Measured values published in US7452858B2 (Amylin Pharmaceuticals, Inc., priority 1999, dated 2008).

Test: Fmoc solid-phase peptide synthesis; 4-(2'-4'-dimethoxyphenyl)-Fmoc aminomethyl phenoxy acetamide norleucine MBHA resin (Novabiochem, 0.55 mmole/g); HBTU (Fast Moc)
Details: whole synthesis, analytical RP-HPLC, C-18 column

Substance: Ala Gly Glu Gly Thr Phe Thr Ser Asp Leu Ser Lys Gln Leu Glu Glu Glu Ala Val Arg Leu Phe Ile Glu Phe Leu Lys Asn-NH2
- crude purity (method not given): about 75%
